These are yes or no findings as the source states them, for the method shown. Binding seen in cells or lysates may run through a third protein. Some entries that bind do so weakly or less than the wild type. Tags and fused reporters may be left off the sequences shown. One block for each binder: values may come before it.
Columns and labels:
Ssa1-GFP (S. cerevisiae) = Ssa1-GFP (S. cerevisiae) (UniProt P10591); assay: co-IP; whole cell extracts of EY1775 co-expressing the tagged proteins; IP with 9E10 (Myc) or anti-GFP polyclonal antibodies, immunoblot; modified H buffer with 200 mM NaCl, immunoprecipitation buffer 150 mM NaCl (results say 200 mM NaCl)
HA3-Ste5 (S. cerevisiae) = biological target: T1, HA3-Ste5 (S. cerevisiae) (UniProt P32917); assay: co-IP; whole cell extracts of wild type and ssa1D ssa2D strains co-expressing Ste5-Myc9 and HA3-Ste5 from 2 micron plasmids; IP with 12CA5 or 9E10, immunoblot; modified H buffer with 150 mM NaCl
T1 sequence: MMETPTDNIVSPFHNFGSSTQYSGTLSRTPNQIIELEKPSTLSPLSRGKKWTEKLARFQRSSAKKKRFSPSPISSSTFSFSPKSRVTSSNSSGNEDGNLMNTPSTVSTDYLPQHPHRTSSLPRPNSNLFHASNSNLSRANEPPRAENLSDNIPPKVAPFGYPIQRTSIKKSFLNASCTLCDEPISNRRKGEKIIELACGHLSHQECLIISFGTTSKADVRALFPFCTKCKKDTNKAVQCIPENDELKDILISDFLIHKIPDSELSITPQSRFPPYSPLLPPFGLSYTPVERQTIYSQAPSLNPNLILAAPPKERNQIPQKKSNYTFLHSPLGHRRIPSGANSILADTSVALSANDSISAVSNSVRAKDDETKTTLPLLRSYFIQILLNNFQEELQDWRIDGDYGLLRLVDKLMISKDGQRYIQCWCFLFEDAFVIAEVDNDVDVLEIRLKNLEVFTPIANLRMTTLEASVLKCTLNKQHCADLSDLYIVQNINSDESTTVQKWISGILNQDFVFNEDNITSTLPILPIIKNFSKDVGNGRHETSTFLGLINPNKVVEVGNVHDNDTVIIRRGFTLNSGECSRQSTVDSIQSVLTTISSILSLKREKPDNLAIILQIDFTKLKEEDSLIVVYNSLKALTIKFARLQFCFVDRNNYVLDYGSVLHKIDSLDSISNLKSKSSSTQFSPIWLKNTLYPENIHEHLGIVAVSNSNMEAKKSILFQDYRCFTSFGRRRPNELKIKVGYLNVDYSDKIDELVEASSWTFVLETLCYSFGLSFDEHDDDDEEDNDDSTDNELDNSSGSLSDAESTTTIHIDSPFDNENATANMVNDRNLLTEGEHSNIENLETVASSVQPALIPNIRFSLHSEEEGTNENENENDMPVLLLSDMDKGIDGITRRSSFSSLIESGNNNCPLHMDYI

Amino acid sequences for entries named in this document (tags omitted).
UniProt P10591: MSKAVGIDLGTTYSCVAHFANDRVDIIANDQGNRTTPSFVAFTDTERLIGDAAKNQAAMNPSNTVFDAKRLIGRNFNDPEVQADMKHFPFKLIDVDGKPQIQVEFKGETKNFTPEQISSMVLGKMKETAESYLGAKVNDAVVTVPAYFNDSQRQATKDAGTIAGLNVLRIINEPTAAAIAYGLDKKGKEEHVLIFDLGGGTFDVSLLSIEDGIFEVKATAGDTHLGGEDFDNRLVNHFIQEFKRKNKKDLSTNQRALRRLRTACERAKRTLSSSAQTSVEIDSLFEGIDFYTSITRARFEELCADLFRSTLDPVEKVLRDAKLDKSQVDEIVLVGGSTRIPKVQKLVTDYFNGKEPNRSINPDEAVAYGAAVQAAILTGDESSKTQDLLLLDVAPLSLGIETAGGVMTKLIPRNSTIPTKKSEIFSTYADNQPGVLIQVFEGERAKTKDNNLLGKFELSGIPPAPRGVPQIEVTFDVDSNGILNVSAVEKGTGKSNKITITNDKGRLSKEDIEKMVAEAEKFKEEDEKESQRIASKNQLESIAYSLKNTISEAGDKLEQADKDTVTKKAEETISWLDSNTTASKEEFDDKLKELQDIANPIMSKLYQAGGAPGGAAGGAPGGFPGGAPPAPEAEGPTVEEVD

[1] = biological target: Ste5-Myc9 (S. cerevisiae) (UniProt P32917); assay: co-IP; whole cell extracts of EY1775 co-expressing the tagged proteins; IP with 9E10 (Myc) or anti-GFP polyclonal antibodies, immunoblot; modified H buffer with 200 mM NaCl, immunoprecipitation buffer 150 mM NaCl (results say 200 mM NaCl)

binding (Ssa1-GFP (S. cerevisiae)): binds
binding (HA3-Ste5 (S. cerevisiae)): binds
B1: Ste5-Myc9 (protein, UniProt P32917 1-917)
chain: T1 sequence

binding (Ssa1-GFP (S. cerevisiae)): binds
B2: HA3-Ste5 (protein, UniProt P32917 1-917)
chain: T1 sequence

binding [1]: binds
B3: GFP-Cdc24 (protein, UniProt P11433 1-854)
chain: MAIQTRFASGTSLSDLKPKPSATSISIPMQNVMNKPVTEQDSLFHICANIRKRLEVLPQLKPFLQLAYQSSEVLSERQSLLLSQKQHQELLKSNGANRDSSDLAPTLRSSSISTATSLMSMEGISYTNSNPSATPNMEDTLLTFSMGILPITMDCDPVTQLSQLFQQGAPLCILFNSVKPQFKLPVIASDDLKVCKKSIYDFILGCKKHFAFNDEELFTISDVFANSTSQLVKVLEVVETLMNSSPTIFPSKSKTQQIMNAENQHRHQPQQSSKKHNEYVKIIKEFVATERKYVHDLEILDKYRQQLLDSNLITSEELYMLFPNLGDAIDFQRRFLISLEINALVEPSKQRIGALFMHSKHFFKLYEPWSIGQNAAIEFLSSTLHKMRVDESQRFIINNKLELQSFLYKPVQRLCRYPLLVKELLAESSDDNNTKELEAALDISKNIARSINENQRRTENHQVVKKLYGRVVNWKGYRISKFGELLYFDKVFISTTNSSSEPEREFEVYLFEKIIILFSEVVTKKSASSLILKKKSSTSASISASNITDNNGSPHHSYHKRHSNSSSSNNIHLSSSSAAAIIHSSTNSSDNNSNNSSSSSLFKLSANEPKLDLRGRIMIMNLNQIIPQNNRSLNITWESIKEQGNFLLKFKNEETRDNWSSCLQQLIHDLKNEQFKARHHSSTSTTSSTAKSSSMMSPTTTMNTPNHHNSRQTHDSMASFSSSHMKRVSDVLPKRRTTSSSFESEIKSISENFKNSIPESSILFRISYNNNSNNTSSSEIFTLLVEKVWNFDDLIMAINSKISNTHNNNISPITKIKYQDEDGDFVVLGSDEDWNVAKEMLAENNEKFLNIRLY

From PMC10584130
